The list is a part of this screen's results and no random one: it covers a few groups of compounds. Not every dose and run of a compound is shown. T/C: endpoint of the treated group in % of that of the vehicle group. For survival time, this PubChem deposit counts one and a half times the control or more as active, and values a quarter to a half above the control carry no call in these data; other NCI protocols may use other cut-offs. Some T/C values are marked as having no survivor count here; that says nothing about deaths at the dose. Schedules are NCI's codes, read here as Q, the interval in days (D) or hours (H), X, the number of doses.
System: DBA/2 mice, P1534 leukemia ip, survival T/C
Assay: NCI In Vivo Anticancer Drug Screen. Data for tumor model P1534 Leukemia (intraperitoneal) in DBA/2 mice
Conditions: T/C endpoint: mean survival time, schedule: Q01DX010 (ip), vehicle: saline, higher T/C = longer survival
Procedure: The antitumor activity of compounds was measured in mice bearing transplantable tumors. Survival or tumor size were measured and the results are expressed as the measurement made in the treated group (T) divided by the measurement made in the vehicle treated control group (C). The tumor model used in this assay is P1534 Leukemia (intraperitoneal) in DBA/2 mice

`CN(CCCl)CCCl` was tested, and the T/C (dose: 31.3 micrograms/kg/injection) was 100 % of control [survivor count not shown], the T/C (dose: 62.5 micrograms/kg/injection) was 91 % of control [survivor count not shown] and the T/C (dose: 125.0 micrograms/kg/injection) was 108 % of control [survivor count not shown]. The T/C (dose: 250.0 micrograms/kg/injection) was 125 % of control [survivor count not shown].

From PubChem BioAssay AID314 (DTP/NCI, 2004)
